# At least one compound was matched to its structure with a doubt left.
# System: FATZO mice
# Assay: FATZO mouse NASH model (Example 15): liver histology (NAS, fibrosis score, Sirius Red, Oil Red O)
# Type: in vivo
# Settings: FATZO mice on WDF, 4 weeks
# Text: NASH was induced in 60 male FATZO mice by a western diet (Research Diet # D12079B; fat 40% kcal, protein 17% kcal, carbohydrate 43% kcal) supplemented with 5% fructose in the drinking water (WDF) during a 16 week induction phase. Diets and water were available ad libitum. Littermate control male FATZO mice fed with a control diet (n=6, Purina #5008; fat 17% kcal, protein 27% kcal, carbohydrate 56% kcal) and sterile water were set up for control purpose. Mice were housed in plastic cages with microisolator. Sterilized bedding was replaced once a week. Mice were housed three per cage and maintained on a twelve hour light cycle throughout study duration. Room temperature was monitored daily and maintained at 22-25° C. Body weight was recorded every week during the induction phase.
# Following 16 weeks diet induction, 6 mice remained on control diet (group 1, Control) while 60 induced mice were randomized on body weight and plasma glucose (fed) for assignment to the following treatments. […]
# […], […]+G, LRQNAC, OCA and Vehicle were administered by oral gavage at a volume of 10 mL/kg throughout the study. Dosages were calculated by daily body weight. […]
# The livers were evaluated using the NASH liver criteria for scoring. In this mouse study, one cross section of liver for each case was analyzed with the NASH score system. […] The NAS can range from 0 to 8 and is calculated by the sum of scores of steatosis (0-3), lobular inflammation (0-3) and hepatocyte ballooning (0-2) from H&E stained sections. Fibrosis was scored (0-4) from picrosirius red stained slides. […] Steatosis, lobular inflammation, hepatocyte. balloon degeneration, fibrosis, NAS and the presence of NASH by pattern recognition were systematically assessed. In this study we evaluated one total cross section of liver per mouse in this study. […] The pathology score was determined as 0, +1, +2, or +3. The lesions were scored on location (periportal, centrilobular, and mid zonal) and fat accumulation (focal, periportal, and/or centrilobular). […]
structure (smiles),measurement,setting,value
"CC[C@H]1[C@@H](O)[C@@H]2[C@H](CC[C@]3(C)[C@@H]([C@H](C)CCC(=O)O)CC[C@@H]23)[C@@]2(C)CC[C@@H](O)C[C@@H]12 [OCA, 6α-ethyl-chenodeoxycholic acid]","liver Oil Red O staining area compared to vehicle, in words",,reduced Oil Red O staining area
same,"liver fibrosis score compared to vehicle, in words","LIVRQNAC 3000 mg/kg (high dose), LIVRQNAC+G, LRQNAC, OCA",did not affect
same,"Sirius Red collagen staining compared to vehicle, in words","LIVRQNAC 3000 mg/kg, LIVRQNAC+G, LRQNAC, OCA",did not affect

# — US20180169045A1, “AMINO ACID COMPOSITIONS AND METHODS FOR THE TREATMENT OF LIVER DISEASES” (AXCELLA HEALTH INC., priority 2016, published 2018)
